Reference: paper PMC2949399, “Gene Expression Signature-Based Screening Identifies New Broadly Effective Influenza A Antivirals” (PLoS ONE, 2010)

Test: in vitro
Conditions: human

Question: Which CC50 does the source give for `Cc1cc(/C=C/c2ccc3cc(N(C)C)ccc3[n+]2C)c(C)n1-c1ccccc1` [Pyrvinium, pyrvinium] here?
Answer: 854 µM
